Data as given in US20120003299A1.
No constants are given. Whether binding was seen depends on the method and setting. Some entries that bind do so weakly or less than the wild type.

Tests used:
[1] = target: recombinant human Hsp90 (human) (UniProt P07900); assay: SPR (BIACORE): Hsp90 immobilized on sensor chip
[2] = target: recombinant human Hsp90 (human) (UniProt P07900); assay: SPR (BIACORE): Hsp90 immobilized on sensor chip (legend of FIG. 2)
[3] = target: recombinant human Hsp90 (human) (UniProt P07900); assay: discussion of the SPR results of Example 1

Measured: binding

RQIKIWFQNRRMKWKKKAYARIGNSYFK [Antp-TPR chimeric peptide (…-…)]
binds: [1] | [2] | [3]
